Data source: PubChem BioAssay AID1508588 (Peter MacCallum Cancer Centre, 2020)
In all, the deposit lists about 18,000 reagents; shown is a random part of them. Of all reagents, 790 (4.4%) are marked active. 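Calls rest on a combination of fold-change classes in drug and vehicle arms, not all shown here.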 Some reagents were tested in more than one well and are listed for each.

Aim: 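Genome-wide search for knock-downs that heighten vemurafenib action in melanoma cells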 (primary screen)
Cells: human WM266.4 melanoma cells (BRAF V600 mutant)
Reagent: siRNA pool against human genes, 40 nM
Duration: 96 h from transfection to read-out
Challenge: vemurafenib 300 nM (about IC25), added 48 h after transfection, for 48 h; comparison arm got DMSO vehicle only
Detection: 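Cell gain (DAPI nuclei at end minus before drug, mean of two replicates) and medium lactate by absorbance per cell, both as ratio to non-targeting siRNA, also grouped into fold-change classes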
Reading the numbers: cell gain with vemurafenib: higher = more cell gain than with non-targeting siRNA; lactate per cell with vemurafenib: higher = more lactate made per cell
Rule for the call: 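Enhancement is called by pairing each knock-down's vehicle-arm and drug-arm fold-change classes for viability or glycolysis; which class combinations qualify is not given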
Calls: active = enhances vemurafenib effect; inactive = no enhancement seen

Target gene | cell gain with vemurafenib | lactate per cell with vemurafenib | Call
HLA-DQA2 (major histocompatibility complex, class II, DQ alpha 2) | 0.4 | 0.9 | inactive
MRPL36 (mitochondrial ribosomal protein L36) | 0.41 | 0.74 | inactive
RPA4 (replication protein A4) | 0.65 | 1.02 | inactive
GATA1 (GATA binding protein 1) | 0.28 | 1.43 | inactive
ZMYM5 (zinc finger MYM-type containing 5) | 0.98 | 0.44 | active
SOX5 (SRY-box transcription factor 5) | 0.26 | 1.84 | inactive
CRTC3 (CREB regulated transcription coactivator 3) | -0.07 | 0.56 | active
SLC34A3 | 0.44 | 0.5 | inactive
OR2M4 (olfactory receptor family 2 subfamily M member 4) | 0.63 | 1.17 | inactive
SAMSN1 (SAM domain, SH3 domain and nuclear localization signals 1) | 0.41 | 1.08 | inactive
NSD1 (nuclear receptor binding SET domain protein 1) | 0.3 | 0.66 | active
GON7 (GON7 subunit of KEOPS complex) | 0.66 | 0.68 | inactive
GDPD2 (glycerophosphodiester phosphodiesterase domain containing 2) | 0.77 | 0.62 | inactive
NUCB1 (nucleobindin 1) | 0.66 | 0.6 | inactive
MMP8 (matrix metallopeptidase 8) | 1 | 0.89 | inactive
DNAH12 (dynein axonemal heavy chain 12) | 0.82 | 0.84 | inactive
IL36R (interleukin 36 receptor) | 0.54 | 0.56 | inactive
CORO1B (coronin 1B) | 0.32 | 0.41 | inactive
OR9G1 (olfactory receptor family 9 subfamily G member 1) | 0.92 | 1.18 | inactive
BRCC3 (BRCA1/BRCA2-containing complex subunit 3) | 0.55 | 0.82 | inactive
PDIK1L (PDLIM1 interacting kinase 1 like) | 0.7 | 0.4 | active
RCSD1 (RCSD domain containing 1) | 0.99 | 1.02 | inactive
PRKN (parkin RBR E3 ubiquitin protein ligase) | 0.85 | 0.41 | inactive
PRKN (parkin RBR E3 ubiquitin protein ligase) | 0.63 | 1.35 | inactive
USP4 (ubiquitin specific peptidase 4) | 0.51 | 0.88 | inactive
H2BC21 (H2B clustered histone 21) | 0.47 | 1.25 | inactive
RBMS1 (RNA binding motif single stranded interacting protein 1) | 0.33 | 0.57 | inactive
ATP2B2 (ATPase plasma membrane Ca2+ transporting 2) | 0.28 | 0.66 | inactive
KATNAL2 (katanin catalytic subunit A1 like 2) | 1.17 | 0.65 | inactive
PANK3 (pantothenate kinase 3) | 0.33 | 0.8 | inactive
EDA (ectodysplasin A) | 0.85 | 1.16 | inactive
DYNLRB1 (dynein light chain roadblock-type 1) | 0.95 | 0.99 | inactive
ATP6V0A4 (ATPase H+ transporting V0 subunit a4) | 0.61 | 0.76 | inactive
CAVIN3 (caveolae associated protein 3) | 1.13 | 0.71 | inactive
